From the supplement of paper PMC4635364 come the findings set out here.

Assay [1] concerns ReNCell VM. The experiment in a line: neuronal differentiation score (DCX+ cell fraction vs untreated, manual image score) (score (-3 to 3)); higher = more neuronal differentiation. As to conditions: 2 uM, 2 weeks.
Assay [2] has as its system ReNCell VM. The experiment in a line: dopaminergic neuron differentiation score (TH+ cell fraction vs untreated, manual image score) (score (0 to 3)); higher = more TH+ dopaminergic neuron differentiation. The note with it: 2 uM, 4 weeks, BDNF 10 ng/ml + GDNF 10 ng/ml.

Where a name gives a salt, the structure may show the parent alone. This is one part of the list. Repeats in this data set agree poorly, so a single value says little.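 Human fetal ventral-midbrain neural progenitor line ReNCell VM, differentiated without mitogens. Images stained for doublecortin (early neurons) or tyrosine hydroxylase (dopaminergic neurons) were scored by blinded raters against untreated wells (0 = no change). Repeats and both raters were averaged, and compounds averaging 2 or higher were picked as hits for retesting.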

`C(=C\c1ccccc1)/CN1CCN(CCOC(c2ccccc2)c2ccccc2)CC1`: the neuronal differentiation score in assay [1] (library: Tocriscreen) is inactive: 0. In assay [2] (library: Tocriscreen), the “dopaminergic neuron differentiation score” value was inactive: 0.
In the case of `CC1C2Cc3ccc(O)cc3C1(C)CCN2CC1CC1` (single isomer, unassigned; (+)) [(+)-Cyclazocine], in assay [1] (library: LOPAC), the neuronal differentiation score is inactive: 0. In assay [2] (library: LOPAC), the “dopaminergic neuron differentiation score” value was inactive: 0.
As to `CC(C)C1CNC(C(=O)O)C1CC(=O)O` (stereo not given) [Dihydrokainic acid], the neuronal differentiation score in assay [1] (library: LOPAC) was inactive: 0. For the same compound, the “dopaminergic neuron differentiation score” value in assay [2] (library: LOPAC) is inactive: 0.
In the case of `Cc1[nH]c2ccc(O)cc2c1CCN` [2-Methyl-5-hydroxytryptamine hydrochloride], the neuronal differentiation score in assay [1] (library: Tocriscreen) is inactive: 0. Also, in assay [2] (library: Tocriscreen), the “dopaminergic neuron differentiation score” value was inactive: 0.
Consider `C[C@@H]1O[C@@H](O[C@H]2C[C@@H](O)[C@]3(CO)[C@H]4[C@H](O)C[C@]5(C)[C@@H]([C@@H]6COC(=O)C6)CC[C@]5(O)[C@@H]4CC[C@]3(O)C2)[C@H](O)[C@H](O)[C@H]1O` [Dihydroouabain], for which the neuronal differentiation score in assay [1] (library: LOPAC) was inactive: 0. Besides, the “dopaminergic neuron differentiation score” value in assay [2] (library: LOPAC) was inactive: 0.
As to `COc1ccc(CN2CCNCC2)c(OC)c1OC`, the neuronal differentiation score in assay [1] (library: Spectrum) is inactive: 0. Besides, the “dopaminergic neuron differentiation score” value in assay [2] (library: Spectrum) was inactive: 0.
Take `CC[C@H]1CN2CC[C@H]1C[C@H]2[C@H](O)c1ccnc2ccc(OC)cc12`: the neuronal differentiation score in assay [1] (library: Spectrum) was inactive: 0. For the same compound, the “dopaminergic neuron differentiation score” value in assay [2] (library: Spectrum) was inactive: 0.
Consider `CC(C)(Cc1c[nH]c2ccc(Cl)cc12)NCCOc1ccccc1OCC1CC1`, for which, in assay [1] (library: Tocriscreen), the neuronal differentiation score is inactive: 0. Further, in assay [2] (library: Tocriscreen), the “dopaminergic neuron differentiation score” value was inactive: 0.
`CN(C)CCc1ccc(O)cc1` [hordenine]: the neuronal differentiation score in assay [1] (library: Natural) was inactive: 0. In addition, the “dopaminergic neuron differentiation score” value in assay [2] (library: Natural) was inactive: 0.
With `O=c1ccc2c(O)c3ccoc3cc2o1`, the neuronal differentiation score in assay [1] (library: Spectrum) was inactive: 0. Further, in assay [2] (library: Spectrum), the “dopaminergic neuron differentiation score” value is inactive: 0.
With `CSC(=S)NCc1c[nH]c2ccccc12` [brassinin], the neuronal differentiation score in assay [1] (library: Natural) is inactive: 0. Further, the “dopaminergic neuron differentiation score” value in assay [2] (library: Natural) was inactive: 0.
For `Cc1ccc(-c2nc3ccc(C)cn3c2CC(=O)N(C)C)cc1`, the neuronal differentiation score in assay [1] (library: Spectrum) was inactive: 0. Also, the “dopaminergic neuron differentiation score” value in assay [2] (library: Spectrum) was inactive: 0.
In the case of `CN1C[C@H](C(=O)N[C@]2(C)O[C@@]3(O)[C@@H]4CCCN4C(=O)[C@H](Cc4ccccc4)N3C2=O)C[C@@H]2c3cccc4[nH]cc(c34)C[C@H]21`, the neuronal differentiation score in assay [1] (library: Spectrum) is inactive: 0. In addition, the “dopaminergic neuron differentiation score” value in assay [2] (library: Spectrum) was inactive: 0.
Regarding `c1ccc(CCCCN2CCC(c3ccccc3)CC2)cc1` [4-PPBP maleate], the neuronal differentiation score in assay [1] (library: Tocriscreen) was inactive: 0. Also, in assay [2] (library: Tocriscreen), the “dopaminergic neuron differentiation score” value is inactive: 0.
In the case of `COc1cc2c(cc1-c1cc3cc4ccoc4cc3oc1=O)OCO2`, the neuronal differentiation score in assay [1] (library: Spectrum) is inactive: 0. The “dopaminergic neuron differentiation score” value in assay [2] (library: Spectrum) is active: 3.
On to `COC(=O)c1cc2c(cn1)[nH]c1ccccc12` [Methyl beta-carboline-3-carboxylate], for which, in assay [1] (library: LOPAC), the neuronal differentiation score was inactive: 0. Besides, in assay [2] (library: LOPAC), the “dopaminergic neuron differentiation score” value is inactive: 0.
As to `CN1C(=O)CCS(=O)(=O)C1c1ccc(Cl)cc1` (stereo not given), in assay [1] (library: Spectrum), the neuronal differentiation score was inactive: 1. Further, the “dopaminergic neuron differentiation score” value in assay [2] (library: Spectrum) was inactive: 0.
In the case of `C[C@@H](N)Cc1cnc[nH]1` [Histamine, R(-)-alpha-methyl-, dihydrochloride], the neuronal differentiation score in assay [1] (library: LOPAC) was inactive: 0. Moreover, in assay [2] (library: LOPAC), the “dopaminergic neuron differentiation score” value is inactive: 0.
`C[C@]12C=CC(=O)C=C1CC[C@@H]1[C@@H]2CC[C@]2(C)C(=O)CC[C@@H]12`: the neuronal differentiation score in assay [1] (library: Spectrum) was inactive: 0. The “dopaminergic neuron differentiation score” value in assay [2] (library: Spectrum) is inactive: 0.
As to `CN1C[C@H](C(=O)N[C@]2(C)O[C@@]3(O)[C@@H]4CCCN4C(=O)[C@H](Cc4ccccc4)N3C2=O)C=C2c3cccc4[nH]cc(c34)C[C@H]21` [Ergotamine tartrate], in assay [1] (library: Phytochemical), the neuronal differentiation score was inactive: 0. In addition, in assay [2] (library: Phytochemical), the “dopaminergic neuron differentiation score” value was inactive: 0.
`CC1(C)C(O)CC(O)C2(C)C1CC(O)C1(C)C2CCC2(C)C(c3ccoc3)CC3OC321` (stereo not given) [havanensin]: the neuronal differentiation score in assay [1] (library: Natural) was inactive: 0. Also, the “dopaminergic neuron differentiation score” value in assay [2] (library: Natural) is inactive: 0.
For `O=C(O)c1cc[c]([Hg][Cl])cc1` [4-Chloromercuribenzoic acid], the neuronal differentiation score in assay [1] (library: LOPAC) was inactive: 0. In addition, the “dopaminergic neuron differentiation score” value in assay [2] (library: LOPAC) is inactive: 0.
Take `N[C@@H](Cc1ccc(N(CCCl)CCCl)cc1)C(=O)O`: in assay [1] (library: Spectrum), the neuronal differentiation score is inactive: 0. Further, the “dopaminergic neuron differentiation score” value in assay [2] (library: Spectrum) is inactive: 0.
In the case of `O=C1C=CC[C@@H]2[C@H]3CCCN4CCC[C@@H](CN12)[C@@H]34` [sophocarpine], the neuronal differentiation score in assay [1] (library: Natural) was inactive: 0. In assay [2] (library: Natural), the “dopaminergic neuron differentiation score” value is inactive: 0.
For `COc1cc(C=C(C#N)C#N)cc(O)c1O` [Tyrphostin AG 34], the neuronal differentiation score in assay [1] (library: LOPAC) is inactive: 0. Also, the “dopaminergic neuron differentiation score” value in assay [2] (library: LOPAC) is inactive: 0.
As for `c1ccc(/N=N/c2ccccc2)cc1`, the neuronal differentiation score in assay [1] (library: Spectrum) is inactive: 0. Further, the “dopaminergic neuron differentiation score” value in assay [2] (library: Spectrum) is inactive: 0.
Take `COc1ccc(Cc2nccc3cc(OC)c(OC)cc23)cc1OC`: the neuronal differentiation score in assay [1] (library: Spectrum) was inactive: 0. Also, in assay [2] (library: Spectrum), the “dopaminergic neuron differentiation score” value is active: 3.
In the same order, the values of `[O-][n+]1ccccc1[S-].[O-][n+]1ccccc1[S-].[Zn+2]` are inactive: 1 and inactive: 0.
With `C/C=C1/C[N+]2(C)CCC34C(=C(C=O)[C@H]1C[C@@H]32)Nc1ccccc14` (stereo not given in full) [Fluorocurarine chloride], in assay [1] (library: Phytochemical), the neuronal differentiation score was inactive: 0. Also, the “dopaminergic neuron differentiation score” value in assay [2] (library: Phytochemical) is inactive: 0.
Turning to `O=C1C=C2C=C[C@@H]3C[C@@]2(O1)[C@H]1CCCCN31`, in assay [1] (library: Spectrum), the neuronal differentiation score is inactive: 0. In assay [2] (library: Spectrum), the “dopaminergic neuron differentiation score” value is inactive: 0.
